# PMC9478157
# Chains of the proteins cited; added tags and fusions are not shown.
# UniProt P23772: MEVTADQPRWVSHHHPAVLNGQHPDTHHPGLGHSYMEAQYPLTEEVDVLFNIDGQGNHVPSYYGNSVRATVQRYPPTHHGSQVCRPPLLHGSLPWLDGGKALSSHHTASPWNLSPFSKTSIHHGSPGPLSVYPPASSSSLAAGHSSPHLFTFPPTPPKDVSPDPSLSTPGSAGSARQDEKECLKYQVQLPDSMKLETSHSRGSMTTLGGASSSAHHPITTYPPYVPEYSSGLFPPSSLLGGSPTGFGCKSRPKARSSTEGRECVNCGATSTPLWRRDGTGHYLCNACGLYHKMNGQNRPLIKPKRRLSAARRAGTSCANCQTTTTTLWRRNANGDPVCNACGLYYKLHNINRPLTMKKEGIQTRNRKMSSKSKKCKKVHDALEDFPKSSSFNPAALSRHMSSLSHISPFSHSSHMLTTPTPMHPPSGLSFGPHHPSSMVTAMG
# Results are given in words; binding and its absence hold for the method and conditions named. Binding seen in cells or lysates may run through a third protein. Some binding calls cover weakened binding; strength is not graded here.
# B1: JunB (retrovirus-encoded, ILC2/b6 cells) (protein, UniProt P09450 1-344)
# chain: MCTKMEQPFYHDDSYAAAGYGRSPGSLSLHDYKLLKPTLALNLADPYRGLKGPGARGPGPEGSGAGSYFSGQGSDTGASLKLASTELERLIVPNSNGVITTTPTPPGQYFYPRGGGSGGGTGGGVTEEQEGFADGFVKALDDLHKMNHVTPPNVSLGASGGPQAGPGGVYAGPEPPPVYTNLSSYSPASAPSGGSGTAVGTGSSYPTATISYLPHAPPFAGGHPAQLGLSRGASAFKEEPQTVPEARSRDATPPVSPINMEDQERIKVERKRLRNRLAATKCRKRKLERIARLEDKVKTLKAENAGLSSAAGLLREQVAQLKQKVMTHVSNGCQLLLGVKGHAF
# Target: Myc-Flag-GATA3 (UniProt P23772)
# Assay: co-IP; ILC2/b6 cells infected with retroviruses for FLAG-GATA3 and JunB; five days later IP with anti-Flag M2 agarose overnight at 4 °C, immunoblot with anti-JunB; IP buffer 50 mM Tris-HCl pH 7.5, 150 mM NaCl, 10% glycerol, 0.1% Tween, 1 mM EDTA
binder,measurement,value
B1,binding,binds
